Values quoted from earlier work, collected in US4751222A, “2,3,4,5-tetrahydro-1H-3-benzazepines and CNS affecting use thereof” (Novo Industri A/S, priority 1985, dated 1988).
For at least one compound, name, drawing or mass did not settle the structure.

Tested on: dopamine D1
Conditions: Life Sci. 31 (1982), 637 et seq.; cited from earlier work

Question: For `Oc1cc2c(c(Sc3ccccc3)c1O)CCNCC2` [SKF 83742, 2,3,4,5-tetrahydro-7,8-dihydroxy-6-thiophenyl-1H-3-benzazepine], which “dopamine D1 activity” value is on record?
Answer: Its value is “selective D1 dopamine antagonist”.
